Chains of the proteins cited; added tags and fusions are not shown. Chains listed by the source or under a name are the forms on record and can include a tag or linker.
D-dimer (cross-linked fibrin degradation product) (Homo sapiens), one chain, as listed by the source, chain 2 of 3: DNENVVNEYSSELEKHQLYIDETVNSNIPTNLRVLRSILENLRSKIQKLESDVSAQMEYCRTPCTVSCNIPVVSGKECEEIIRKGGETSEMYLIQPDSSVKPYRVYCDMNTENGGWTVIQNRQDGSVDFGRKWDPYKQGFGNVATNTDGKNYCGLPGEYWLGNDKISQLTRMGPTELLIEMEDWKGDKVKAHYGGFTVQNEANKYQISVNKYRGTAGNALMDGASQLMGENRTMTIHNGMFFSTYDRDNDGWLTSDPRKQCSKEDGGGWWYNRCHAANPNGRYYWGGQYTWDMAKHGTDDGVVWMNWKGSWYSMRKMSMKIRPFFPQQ
D-dimer (cross-linked fibrin degradation product) (Homo sapiens), one chain, as listed by the source, chain 3 of 3: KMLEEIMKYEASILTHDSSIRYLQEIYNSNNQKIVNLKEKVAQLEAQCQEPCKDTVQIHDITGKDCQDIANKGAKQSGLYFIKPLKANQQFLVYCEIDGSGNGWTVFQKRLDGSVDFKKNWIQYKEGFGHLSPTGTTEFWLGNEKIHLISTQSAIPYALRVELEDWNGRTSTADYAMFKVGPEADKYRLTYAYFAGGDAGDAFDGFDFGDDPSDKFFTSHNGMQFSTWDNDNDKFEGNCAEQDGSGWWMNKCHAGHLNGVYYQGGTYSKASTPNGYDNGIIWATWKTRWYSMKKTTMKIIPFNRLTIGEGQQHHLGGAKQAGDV
D-dimer (cross-linked fibrin degradation product) (Homo sapiens), one chain, as listed by the source, chain 1 of 3: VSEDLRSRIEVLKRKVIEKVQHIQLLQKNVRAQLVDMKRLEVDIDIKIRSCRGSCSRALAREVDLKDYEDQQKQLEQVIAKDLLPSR

According to patent US20230201357, “D-DIMER-SPECIFIC APTAMERS AND METHODS OF USE IN DIAGNOSTICS, THERAPEUTIC AND THERANOSTIC PURPOSES” (APTAMER DIAGNOSTIC, INC., published 2023):

Key:
[1] = tested on: D-dimer (cross-linked fibrin degradation product) (Homo sapiens); test: SELEX; conditions: enrichment only, purified native protein, single-stranded DNA
[2] = tested on: D-dimer (cross-linked fibrin degradation product) (Homo sapiens); test: ELONA; conditions: 25 nM, purified native protein, single-stranded DNA
[3] = full length shows best binding, label: 3' biotin, variant of ADI1701
[4] = lower binding than ADI1701, label: biotin

With “GTCGATGTAGATGGTGCAGACCAGCCTTCGTTGTAGTCCA [ADI1708]” the selection result ([1]; 354 reads at round 9) was “selected”.

“TGGCTCGGTGTAGACTCCCGCGGAGATTCAGTTCCCTGTT [ADI1713]” was tested, and the selection result ([1]; 187 reads at round 9) was “selected”.

“GGCGATGTAGCAGCCGCAGGGCTTACTTCTATACACCTCG [ADI1715]” was tested, and the selection result ([1]; 164 reads at round 9) was “selected”.

“TCCCGATTTGGTGTAAAATTCCCTCAGCCCTACA [ADI1701Trun2]”: binds more weakly [2, 3].

With “GGCGATGTAGCGTGTGAAGACACTCCTGAATAGCTGCCTG [ADI1704]” the selection result ([1]; 530 reads at round 9) was “selected”.

In the case of “GCCGGTGTAGGTCACAAAGGTGATCCGATCTCCCGTATGT [ADI1709]”, the selection result ([1]; 243 reads at round 9) is reported as “selected”.

“GCCGGTGTAGGTGGTGTAGACCATTTCTCTCGTGCTTGGC [ADI1703]”: binds more weakly [2, 4].

With “GCGGCACGGCAAGGCTGTTCGTTGTTTGTTGTGACGCCCG [ADI1712]” the selection result ([1]; 192 reads at round 9) was “selected”.

“GCGCGGTCCCGATTTGGTGTAAAATTCCCTCAGCC [ADI1701Trun3]”: binds more weakly ([2]; 3' deletion of 5 bases affected binding, label: 3' biotin, variant of ADI1701).

“GCGCGGTCCCGATTTGGTGTAAAATTCCCT [ADI1701Trun4]”: binds more weakly [2, 3].

“GCGCGGTCCCGATTTGGTGTAAAATTCCCTCAGCCCTACG [ADI1702]”: binds more weakly [2, 4].

“CGGTCCCGATTTGGTGTAAAATTCCCTCAGCC [ADI1701Trun5]”: binds more weakly [2, 3].

With “AGACCGATGTAGGCCCAGAAGTGGGTGTCCGCACAAGTGC [ADI1707]” the selection result ([1]; 386 reads at round 9) was “selected”.

“AGACCCGCGGTTCGTCGAGCTCTTGCGGCAGGGTCCAAGA [ADI1710]” was tested, and the selection result ([1]; 230 reads at round 9) was “selected”.

In the case of “CGGTGTAGACCCTGGAGAGGGTGTGCATATGTCCGGTTGC [ADI1705]”, the selection result ([1]; 489 reads at round 9) is reported as “selected”.

For “GCTGTGGGGCCAGTTTCGATGTAGAAATCCGATATGTAAC [ADI1706]”, the selection result ([1]; 426 reads at round 9) was “selected”.

For some of these results: A weaker result is weaker than the reference pair of the same experiment. For some of these results: The exact form of at least one protein or probe is not confirmed.
